At least one structure is not confirmed: it was looked up by name or label, or the drawing left a doubt.
What was measured:
anti-Chlamydia abzymes [1] = assay type: biochemical, human
Method: (§1) For chemical inactivation, a diluent solution was divided into two portions. In one portion, an abzyme inhibitor was added. The following abzyme inhibitors were used DMSO, 0.1-10%; sodium azide, 10^−5-10^−3M; catechins, 10^−6-10^−3M; ketek, […]; lactobacilli culture, 1 μM-1 mM; ascorbic acid, 10^−4-10^−3M; acetyl salicylic acid, 10^−4-10^−3M.
(§2) The serum sample was split in two aliquots and one aliquot was diluted by solution containing the abzyme inhibitor, the second aliquot was diluted by the control solution. The aliquots were then tested in the same fashion.
ELISA assays were performed using Medac materials and reagents, which were used in accordance with the manufacturers instructions.
Briefly, serum samples from patients were treated as described above. 50 μl of sample diluent was pipetted into microtitre well Al as blank, and 50 μl of the negative control, Positive Control and the diluted patients' samples were pipetted into other microtitre wells. The microplate wells were incubated for 60 min (±5 min) at 37° C. (±1° C.) in a humid chamber and then washed three times with 200 μl wash buffer per well. 50 μl of Conjugate was then added to each well and the microplate wells incubated again for 60 min (±5 min) at 37° C. […]
Photometric reading was performed using a plate reader at 450 nm (ref. 620-650 nm) within 15 min after adding the Stop Solution. […]

anti-Chlamydia abzymes [2] = assay type: biochemical, human; remark: listed apart in the source
Method: as §1, §2
Lipid peroxidation was assessed as a level of MDA concentration which was measured by spectrophotometric method [Draper, H. H. et al Free Radic. Biol. Med. (1993) 15, 353]. This method is based on the formation of a coloured product when malondialdehyde reacts with thiobarbituric acid. Briefly, the level of abzymes in a sample was determined as follows: Samples of sera were diluted 1:1 by 0.05M acetate buffer pH 4.0 to make the final pH of these samples between 5.6-5.8. 990 μl of the diluted serum was mixed with 10 μl of the commercial live ovine Chlamydia vaccine (Intervet). Samples were incubated overnight (12-16 hours) at 37° C. […] The supernatants were collected and their absorption measured at λ 525 nm to determine the concentration of malondialdehydes (MDA), which are products of lipid peroxidation.

## CN(C)[C@@H]1C(O)=C(C(N)=O)C(=O)[C@@]2(O)C(O)=C3C(=O)c4c(O)cccc4[C@@](C)(O)[C@H]3C[C@@H]12 [Tetracycline]
anti-Chlamydia abzymes [1]
  Inhibition of abzymes ability to cause: Damage of Chlamydia pneumoniae antigen, in ELISA: Negative
anti-Chlamydia abzymes [2]
  Inhibition of abzymes ability to cause: Serum lipid peroxidation, in MDA assay: Negative

Reference: patent US7939275B2, “Methods for detection of chlamydia in samples” (priority 2005, dated 2011)
